Experimental findings from PubChem BioAssay AID493014 (National Center for Advancing Translational Sciences (NCATS), 2011) are described below.

Usually AC50 stands for the midpoint of the concentration-response curve, whichever way the signal moves.

This test is described as follows: qHTS Assay to Find Inhibitors of Chronic Active B-Cell Receptor Signaling. Particulars: ABC-DLBCL IkBa-CBG/CBR reporter, luminescence ratio (green luciferase fused to IkBa over red control in TMD8 lymphoma cells), 4 h. In short, it runs like this: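 TMD8 human ABC-DLBCL cells with doxycycline-inducible IκBα–green luciferase fusion and unfused red luciferase, in 0.5% FBS medium; compounds up to 46 uM, 4 h at 37C. Green/red luminescence ratio, filter-overlap corrected, fitted to concentration-response curves.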

Setting [1] is: measured here: CBR red luminescence, cell number.
The mark [2] stands for this setting: measured here: IkBa-CBG green luminescence.

Molecules are shown by their SMILES. Some of the results follow. Further columns of the screen follow, without active or inactive calls. The list favours compounds with an active or inconclusive main result. Potencies come from curve fits of mixed quality, noted in brackets.

For `OCC1(CC2CCCCO2)CCN(Cc2cccc(O)c2)CC1` (centres undefined), the AC50 under setting [1] was 22.4 µM [rising, single point]. Consider `Cc1ccc(C(=O)NNC(=O)c2ccc(-n3cncn3)c([N+](=O)[O-])c2)cc1`, for which the AC50 under setting [1] is 20.6 µM [falling, single point]. With `CCOC(=O)C1=C(N)Oc2cc(O)ccc2C1c1cccnc1` (centres undefined), the AC50 under setting [1] is 22.4 µM [falling, single point]. Take `COCCNC(=O)c1ccc2c(c1)nc(C)n2-c1cccc(F)c1`: the AC50 under setting [1] is 0.631 µM [rising, partial curve, poor fit]. For the compound `CC(NC(=O)CN(c1cccc(C(F)(F)F)c1)S(=O)(=O)c1ccc(Cl)c([N+](=O)[O-])c1)c1ccccc1` (centres undefined), the AC50 is, setting by setting: under setting [1], 23.1 µM [falling, single point]; under setting [2], 20.6 µM [rising, partial curve, poor fit].

`CCCCCCCCCCOC(=O)C[N+](C)(C)C/C=C(/C)Cl`: the AC50 under setting [1] is 20.6 µM [falling, single point]. Still for that read-out and setting: next, `Cn1c(=O)n(CCc2ccccc2)c(=O)c2c1nc1n2CCCN1c1ccccc1`: 0.82 µM [falling, partial curve, poor fit]; `Fc1cccc(Nc2ncnc3[nH]ncc23)c1`: 12.6 µM [falling, single point]. For `CC1CCN(C(=O)c2cc3nc(C4CC4)cc(C(F)(F)F)n3n2)CC1`, the AC50 under setting [1] was 29.1 µM [rising, single point].

Take `C=CCn1c(SCC(=O)Nc2sc(C)c(C)c2C(=O)OCC)nnc1-c1sc(N)nc1C`: the AC50 under setting [1] is 2.59 µM [falling, partial curve, poor fit]. On the same count and under the same terms, next, `Cc1cc(=O)n2[nH]c(-c3cccc(Cl)c3)cc2n1`: 35.5 µM [falling, single point]; `O=C(CSc1nc2nccnc2c(=O)n1Cc1cccs1)Nc1ccccc1`: 10 µM [falling, partial curve]. As for `Cc1cc(C)n(-c2ccc(C(=O)OCC(=O)Nc3ccc(Cl)cc3[N+](=O)[O-])cc2)n1`, the AC50 under setting [1] is 20.6 µM [rising, partial curve, poor fit].

Turning to `Cc1ccc(S(=O)(=O)N(C)C[C@@H]2Oc3ccc(NC(=O)CCC(F)(F)F)cc3CC(=O)N([C@@H](C)CO)C[C@@H]2C)cc1`, the concentration at half-maximal activity (AC50) runs as follows: under setting [1], 20.6 µM [rising, partial curve]; under setting [2], 23.1 µM [falling, partial curve].

Regarding `CN(CC(=O)Nc1ccc(Cl)cc1)C(=O)CCc1c[nH]c2ccccc12`, the AC50 under setting [1] is 11.2 µM [falling, single point].

On to `CCC1=NN(C(=O)c2ccc(Cl)cc2)C(O)(c2ccccc2)C1` (centres undefined), for which the concentration at half-maximal activity (AC50) under setting [1] was 17.8 µM [falling, partial curve, poor fit]. Same read-out and setting: next, `CN1CCN(CCc2nc3cc(NC(=O)c4ccco4)ccc3n2C)CC1`: 2.51 µM [falling, full curve, poor fit].

For `O=c1c2ccccc2oc2nc(C3CCCCC3)n(Cc3ccco3)c(=O)c12`, the AC50 under setting [1] was 10 µM [falling, partial curve, poor fit]. On to `COc1cc(/C=C2\C(=N)N3N=C(S(C)(=O)=O)SC3=NC2=O)ccc1OCCOc1ccc(C)cc1`, for which, under setting [1], the AC50 is 11.2 µM [rising, partial curve, poor fit]. The same measure, in the same setting: the figure for `COc1ccc(C(=O)Nc2ccccc2-c2nnn(CC(=O)N3CCOCC3)n2)cc1` is 35.5 µM [rising, single point]; for `O=C1c2ccccc2-c2nc3ccccc3cc21` it is 1 µM [rising, full curve, poor fit]; for `O=C(OCc1cccs1)c1ccccc1NS(=O)(=O)c1ccc2c(c1)OCCO2` it is 0.058 µM [falling, full curve, poor fit]. `NS(=O)(=O)c1ccc(NC(=S)NCc2ccc(Cl)cc2)cc1`: the AC50 under setting [1] was 31.6 µM [falling, single point]. Still for that read-out and setting: the figure for `Cc1cccc(NC(=O)C2C3C=CC(C4CC34)C2C(=O)O)c1` (centres undefined) is 23.1 µM [rising, partial curve, poor fit]; for `Cc1cc(C)cc(N(C(=O)c2ccc3c(c2)OCO3)C2C=CS(=O)(=O)C2)c1` (centres undefined) it is 11.2 µM [falling, partial curve]; for `CCOC(=O)C1CCN(C(=O)COc2ccc(Br)cc2C)CC1` it is 8.91 µM [falling, partial curve]. As to `O=C(OCC(=O)c1cccs1)C1=COCCO1`, the AC50 under setting [1] was 6.51 µM [falling, single point]. The same measure, in the same setting: next, `CCOC(=O)c1ccc(N=C2NC(=O)CS2)cc1`: 29.1 µM [rising, single point]; `COc1cccc2sc3cc(C#CC4(O)CCCCC4)ccc3c(=O)c12`: 13 µM [falling, partial curve]. On to `Cc1cc(C(=O)Cn2ncc(Cl)c(Cl)c2=O)c(C)n1CC(F)(F)F`, for which the concentration at half-maximal activity (AC50) was 11.6 µM [falling, partial curve, poor fit] under setting [1] and 20.6 µM [rising, partial curve, poor fit] under setting [2]. As for `Cc1ccsc1/C=N/NC(=O)c1c[nH]c2ccccc12`, the concentration at half-maximal activity (AC50) under setting [1] was 20 µM [falling, single point]. Still for that read-out and setting: the figure for `CC(NC(=O)c1ccc(Cl)s1)C1CCCO1` (centres undefined) is 14.6 µM [rising, partial curve]. For `O=C(/C=C/c1ccco1)NCCc1ccc(F)cc1`, the AC50 under setting [1] is 8.91 µM [falling, partial curve, poor fit]. On the same count and under the same terms, the figure for `Oc1ccc(Nc2ncnc3c2oc2ccccc23)cc1` is 3.98 µM [falling, partial curve, poor fit]; for `O=C(CSc1nnc(Cc2cccs2)n1-c1ccccc1)NC1CCCCC1` it is 35.5 µM [falling, single point]; for `Cc1ccc(-c2nc(CS(=O)CC(=O)NCCC(C)C)c(C)o2)cc1` (centres undefined) it is 8.2 µM [falling, partial curve, poor fit]. Take `COc1ccc2c(C)cc(SCc3c(C)noc3C)nc2c1`: the AC50 under setting [1] was 4.47 µM [rising, full curve, poor fit]. Consider `O=C(N/N=C1\CC2CC=CC12)c1ccc(O)cc1` (centres undefined), for which, under setting [1], the half-maximal activity concentration (AC50) was 0.316 µM [falling, full curve]. For `COc1cc(-c2nc3cnccn3c2Nc2c(C)cccc2C)ccc1O`, the AC50 under setting [1] was 14.6 µM [falling, single point]. As to `Cc1ccccc1Nc1nc(N)nc(COC(=O)[C@@H](NC(=O)c2c(F)cccc2F)C(C)C)n1`, under setting [1], the AC50 is 14.6 µM [rising, single point]. Regarding `Cc1ccc(NC(=O)CN(C)C(=O)Nc2ccc(C)cc2)cc1`, the half-maximal activity concentration (AC50) under setting [1] was 11.2 µM [rising, partial curve]. Turning to `Nc1nc(-c2ccc(Cl)cc2)nnc1-c1ccc(Br)cc1`, under setting [1], the AC50 was 3.98 µM [falling, full curve].

Take `CCC1=Nc2cc(C(=O)NCCCOC)ccc2Sc2ccccc21`: the AC50 under setting [1] is 2.91 µM [rising, full curve] and the AC50 under setting [2] was 4.11 µM [falling, full curve]. On to `CCOc1ccc(NC(=O)Nc2cccs2)cc1`, for which the half-maximal activity concentration (AC50) under setting [1] is 23.1 µM [falling, single point].

As for `COc1ccc2oc(C(=O)OCC(=O)NCCc3ccccc3)c(C)c2c1`, the AC50 under setting [1] is 23.1 µM [rising, partial curve, poor fit]. On the same count and under the same terms, next, `N/C(=N\OC(=O)Cc1ccccc1)c1cccc(Br)c1`: 15.8 µM [rising, partial curve, poor fit]; `Clc1ccc(CSc2nnc([C@@H]3CCCN3)o2)cc1`: 10 µM [rising, partial curve]; `COc1ccc2oc(=N)c(-c3nnc4n3CCCCC4)cc2c1`: 20.6 µM [rising, single point]. The same measure, in the same setting: next, `Cc1ccc(NC(=O)CSc2nccn2C2CCCC2)cc1`: 35.5 µM [rising, single point]; `C/C(=N\NC(=O)C1(C)CC1(Br)Br)c1cccc(NC(=O)c2ccc(C)o2)c1` (centres undefined): 17.8 µM [falling, single point]. `COC(=O)C(Nc1ccccc1Cl)(c1cc(C)c(O)c(C)c1)C(F)(F)F` (centres undefined): the AC50 is 29.1 µM [falling, single point] under setting [1] and 20.6 µM [rising, partial curve, poor fit] under setting [2]. Consider `COC(=O)c1ccc(/C=C2\Oc3ccccc3NC2=O)cc1`, for which the AC50 under setting [1] was 0.251 µM [falling, full curve].

Regarding `CCOC(=O)/C(=N\NC(=O)c1ccccc1)c1ccccc1`, the AC50 under setting [1] is 1.46 µM [falling, partial curve]. The same measure, in the same setting: next, `O=C(COc1cccc(F)c1)Nc1nc(-c2cccnc2)cs1`: 29.1 µM [rising, partial curve, poor fit]; `O=C(Nc1cccc(O)c1)c1cc(-c2ccco2)on1`: 1.46 µM [falling, full curve]. On the same count and under the same terms, next, `COC(=O)Cc1ccc(NC(=O)c2ccc(Br)o2)cc1`: 4.11 µM [rising, full curve, poor fit]; `COc1ccc(C=O)cc1COc1ccccc1F`: 23.1 µM [rising, single point]. The same measure, in the same setting: next, `O=C(Nc1cc2nn(-c3ccccc3)nc2cc1Cl)c1ccco1`: 2.91 µM [rising, full curve, poor fit]. On to `CC(=O)c1cccc(Nc2c3c(nc4ccccc24)CCC3)c1`, for which the AC50 under setting [2] is 22.4 µM [falling, single point]. For `COc1ccc(N(C(=O)CNC(=O)c2cccs2)C(C(=O)NCC2CCCO2)c2ccccc2)cc1` (centres undefined), the AC50 under setting [1] is 4.47 µM [falling, full curve, poor fit].

In the case of `O=C1CSC(=Nc2ccc(O)cc2)N1`, the AC50 under setting [1] was 22.4 µM [falling, single point].

Consider `C=CCn1c(CCC(=O)O)ccc1-c1ccc(OC)cc1`, for which, under setting [1], the AC50 is 29.1 µM [rising, single point]. Still for that read-out and setting: the figure for `Cc1c(C=O)c2ccccn2c1C(=O)c1ccccc1Cl` is 35.5 µM [falling, single point]; for `CC(C)Oc1ccc(NC(=O)CCC(=O)O)cc1` it is 20.6 µM [falling, partial curve, poor fit].
